Measured values: patent US20250074999A1 (PENTIXAPHARM, published 2025)
These are yes or no findings as the source states them, for the method shown. Some entries that bind do so weakly or less than the wild type.

T1: Tn-LYPD3-STP-ECD (NM-F9-derived LYPD3-STP-ECD digested with β-galactosidase) (human) (UniProt O95274)
T1 sequence (chain, O-glycans mainly Tn (GalNAcα1-) on Ser/Thr after β-galactosidase): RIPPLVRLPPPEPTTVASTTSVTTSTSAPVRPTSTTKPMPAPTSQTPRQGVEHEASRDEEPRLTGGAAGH


Target: T1, Tn-LYPD3-STP-ECD (NM-F9-derived LYPD3-STP-ECD digested with β-galactosidase) (human)
Assay: ELISA and flow cytometry (FIGS. 14, 15 and 16)

Binder | binding
21E9-222 (antibody, V domains shown, Humanized 21E9; also called humanized aLYPD3 antibody 21E9-222) VH: EVQLVESGGGLVQPGGSLRLSCAASGFDFSNYYYMCWVRQAPGKGLEWVSCIAAGSGGYTYYASWAKGRFTISRDNSKNTLYLQMNSLRAEDTAVYYCASSGDYKGFNLWGQGTLVTVS VL: DIVMTQSPSSLSASVGDRVTITCQASQSISSYLAWYQQKPGKPPKLLIYGASNLASGVPSRFSGSGSGTDFTLTISSLQPEDVATYYCQGYYYSFSDIFAFGGGTKVEI | binds
21E9-227 (antibody, V domains shown, Humanized 21E9; also called humanized aLYPD3 antibody 21E9-227) VH: QVQLVESGGGLVKPGGSLRLSCAASGFDFSNYYYMCWIRQAPGKGLEWVSCIAAGSGGYTYYASWAKGRFTISRDNAKNSLYLQMNSLRAEDTAVYYCASSGDYKGFNLWGQGTLVTVS VL: AIRIAQSPSSLSASTGDRVTITCQASQSISSYLAWYQQKPGKAPKLLIYGASNLASGVPSRFSGSGSGTDFTLTISCLQSEDFATYYCQGYYYSFSDIFAFGQGTKVEI | binds
21E9-228 (antibody, V domains shown, Humanized 21E9; also called humanized aLYPD3 antibody 21E9-228) VH: QVQLQESGGGLVQPGGSLRLSCAASGFDFSNYYYMCWVRQAPGKGLEWVLCIAAGSGGYTYYASWAKGRFTISRDNSKNTLYLQMNSLRAEDTAIYYCASSGDYKGFNLWGQGTLVTVS VL: AIRIAQSPSSLSASTGDRVTITCQASQSISSYLAWYQQKPGKAPKLLIYGASNLASGVPSRFSGSGSGTDFTLTISCLQSEDFATYYCQGYYYSFSDIFAFGQGTKVEI | binds
21E9-219 (antibody, V domains shown, Humanized 21E9; also called humanized aLYPD3 antibody 21E9-219) VH: LVQLVESGGGLVKPGGSLRLSCAASGFDFSNYYYMCWIRQAPGKGLEWVSCIAAGSGGYTYYASWAKGRFTISRDNAKNSLYLQMNSLRAEDTAVWYCASSGDYKGFNLWGQGTLVTVS VL: DIVMTQSPSSLSASVGDRVTITCQASQSISSYLAWYQQKPGKPPKLLIYGASNLASGVPSRFSGSGSGTDFTLTISSLQPEDVATYYCQGYYYSFSDIFAFGGGTKVEI | binds
21E9-225 (antibody, V domains shown, Humanized 21E9; also called humanized aLYPD3 antibody 21E9-225) VH: EVQLVESGGGLVQPGGSLRLSCAASGFDFSNYYYMCWVRQAPGKGLEWVSCIAAGSGGYTYYASWAKGRFTISRDNSKNTLYLQMNSLRAEDTAVYYCASSGDYKGFNLWGQGTLVTVS VL: AIRIAQSPSSLSASTGDRVTITCQASQSISSYLAWYQQKPGKAPKLLIYGASNLASGVPSRFSGSGSGTDFTLTISCLQSEDFATYYCQGYYYSFSDIFAFGQGTKVEI | binds
21E9-224 (antibody, V domains shown, Humanized 21E9; also called humanized aLYPD3 antibody 21E9-224) VH: EVQLVESGGGLVQPGGSLRLSCAASGFDFSNYYYMCWVRQAPGKGLEWVSCIAAGSGGYTYYASWAKGRFTISRDNSKNTLYLQMNSLRAEDTAVYYCASSGDYKGFNLWGQGTLVTVS VL: EIVMTQSPSSLSASVGDRVTITCQASQSISSYLAWYQQKPGKAPKLLIYGASNLASGVPSRFSGSGSGTDFTLTISSLQPEDFATYYCQGYYYSFSDIFAFGGGTKVEI | binds

Results, then the binder that gave them:

binding | Binder
binds | 21E9-221 (antibody, V domains shown, Humanized 21E9; also called humanized aLYPD3 antibody 21E9-221) VH: EVQLVESGGGLVQPGGSLRLSCAASGFDFSNYYYMCWVRQAPGKGLEWVSCIAAGSGGYTYYASWAKGRFTISRDNSKNTLYLQMNSLRAEDTAVYYCASSGDYKGFNLWGQGTMVTVS VL: DIVMTQSPSSLSASVGDRVTITCQASQSISSYLAWYQQKPGKPPKLLIYGASNLASGVPSRFSGSGSGTDFTLTISSLQPEDVATYYCQGYYYSFSDIFAFGGGTKVEI
binds | 21E9-220 (antibody, V domains shown, Humanized 21E9; also called humanized aLYPD3 antibody 21E9-220) VH: QVQLQESGGGLVQPGGSLRLSCAASGFDFSNYYYMCWVRQAPGKGLEWVLCIAAGSGGYTYYASWAKGRFTISRDNSKNTLYLQMNSLRAEDTAIYYCASSGDYKGFNLWGQGTLVTVS VL: DIVMTQSPSSLSASVGDRVTITCQASQSISSYLAWYQQKPGKPPKLLIYGASNLASGVPSRFSGSGSGTDFTLTISSLQPEDVATYYCQGYYYSFSDIFAFGGGTKVEI
binds | 21E9-226 (antibody, V domains shown, Humanized 21E9; also called humanized aLYPD3 antibody 21E9-226) VH: EVQLVESGGGLVQPGGSLRLSCAASGFDFSNYYYMCWVRQAPGKGLEWVSCIAAGSGGYTYYASWAKGRFTISRDNSKNTLYLQMNSLRAEDTAVYYCASSGDYKGFNLWGQGTLVTVS VL: EIVMTQSPSSLSASVGDRVTITCQASQSISSYLAWYQQKPGKPPKLLIYGASNLASGVPSRFSGSGSGTDFTLTISSLQPEDVATYYCQGYYYSFSDIFAFGGGTKLEI
